# Reference: PubChem BioAssay AID504793 (Drosophila RNAi Screening Center, 2011)
# Purpose: 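Knock-downs allowing continued mitosis even though DNA is damaged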 (primary screen)
# System: Drosophila S2R+ cells
# Reagent: long dsRNA against Drosophila genes, about 0.25 µg dsRNA per well
# Time to read-out: 4 days of dsRNA, then 4 hours of drug before read-out
# Challenge: doxorubicin 0.5 µM for 4 hours to cause double-strand breaks, in cells also given a low, harmless dose of dsRNA against nbs to sensitise the assay
# Measured: 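Mitotic index as the number of phospho-histone H3-positive cells in each well following doxorubicin, given as raw counts without normalisation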
# Scale: mitotic cells: higher = more cells in mitosis, weaker G2 arrest
# Active means: 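a call needs confirmation in secondary tests, with other dsRNAs and a check of mitotic timing without damage, not just a high primary count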
# Meaning of the calls: active = confirmed in follow-up tests; inactive = not confirmed
# In all, the deposit lists about 23,000 reagents; shown is an unselected part of those that have a named target and a result. In the full data, 62 (0.27%) got an active call. 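Calls come from follow-up tests whose scores are not deposited, so confirmed genes may have low counts here; counts are not normalised per plate.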 The raw values are shown without normalisation. Reagents against one gene are numbered here. A plus sign joins genes that one reagent is predicted to hit.
gene,dsRNA no.,"mitotic cells, replicate 1","mitotic cells, replicate 2",Outcome
CG4712,1,4,,inactive
CG32488,1,3,,inactive
CG32488,2,7,,inactive
CG8066,1,6,,inactive
CG8066,2,9,,inactive
ND-MWFE,1,2,,inactive
VhaM9.7-d,1,6,,inactive
scra,1,10,,inactive
Nplp3,1,5,,inactive
CG10338,1,8,,inactive
Ac78C,1,3,,inactive
Ac78C,2,9,,inactive
Ac78C,3,5,,inactive
nod,1,10,,inactive
nod,2,9,,inactive
Pdf,1,14,,inactive
CG7059,1,10,,inactive
CG7059,2,3,,inactive
betaNACtes3,1,12,,inactive
gt,1,,,inactive
gt,2,4,,inactive
Set2,1,8,,inactive
unc-13-4A,1,6,,inactive
unc-13-4A,2,9,,inactive
unc-13-4A,3,4,,inactive
frma,1,6,,inactive
frma,2,8,,inactive
CG12507,1,9,,inactive
Lgr1,1,10,,inactive
EndoU + CR31292,1,13,,inactive
Gs1,1,6,,inactive
Gs1,2,5,,inactive
lsn,1,11,,inactive
lsn,2,12,,inactive
RagC-D,1,6,,inactive
CG13958 (retired record),1,4,,inactive
CG13958 (retired record),2,2,,inactive
Spn28B,1,6,13,inactive
BomS4,1,8,,inactive
Bcs1,1,8,,inactive
Spn75F,1,5,,inactive
RpS15,1,6,,inactive
RpS15,2,2,,inactive
Asph,1,6,,inactive
Asph,2,8,,inactive
Asph,3,2,,inactive
CG13287,1,5,,inactive
CG13287,2,5,,inactive
tpr,1,3,,inactive
tpr,2,5,,inactive
CG17024 (retired record),1,2,,inactive
Pvf3,1,5,,inactive
Pvf3,2,14,,inactive
Pvf3,3,7,,inactive
Pvf3,4,6,,inactive
Pvf3,5,11,,inactive
Pvf3,6,3,,inactive
CalpB,1,6,,inactive
CalpB,2,12,,inactive
CG9861,1,1,,inactive
CG9861,2,8,,inactive
DIP-epsilon,1,13,,inactive
DIP-epsilon,2,2,,inactive
DIP-epsilon,3,9,,inactive
CG31031 (retired record),1,8,,inactive
Ald2,1,19,,inactive
Ald2,2,3,,inactive
Pdzd8,1,10,,inactive
Pdzd8,2,7,,inactive
CG8958,1,10,,inactive
CG8958,2,4,,inactive
Trhn,1,7,,inactive
CG32548,1,9,,inactive
CG32548,2,11,,inactive
CG32548,3,3,,inactive
CG8635,1,2,,inactive
CG8635,2,3,,inactive
CG32117,1,6,,inactive
klu,1,8,,inactive
klu,2,11,,inactive
GstD2,1,2,,inactive
GstD2,2,7,,inactive
CG8677 + CG31626,1,11,,inactive
CG15365,1,12,,inactive
Slob,1,3,,inactive
N,1,9,,inactive
CanA-14F,1,11,,inactive
Paip1,1,7,,inactive
Paip1,2,4,,inactive
CG7376,1,8,,inactive
CG14787,1,11,,inactive
CG11095,1,11,,inactive
CG11095,2,3,,inactive
fend,1,7,,inactive
fend,2,7,,inactive
Gld,1,3,,inactive
GstD9,1,7,,inactive
GstD9,2,7,,inactive
CR40441,1,15,,inactive
CG5327 + CG5493,1,6,,inactive
CG2790,1,5,,inactive
CG2790,2,3,,inactive
Prp8,1,3,,inactive
Edg91,1,11,,inactive
fbp,1,5,,inactive
CG5866,1,,,inactive
PAN3,1,7,,inactive
PAN3,2,7,,inactive
CG15046,1,12,,inactive
CG5116,1,8,,inactive
CG8405,1,10,,inactive
CG8405,2,9,,inactive
CG43795,1,4,,inactive
CG43795,2,6,,inactive
CG43795,3,5,,inactive
CG43795,4,12,,inactive
CG43795,5,8,,inactive
CG43795,6,25,,inactive
CG43795,7,5,,inactive
Fim,1,9,,inactive
CG5246,1,8,,inactive
CG5246,2,11,,inactive
Obp57c,1,5,,inactive
CG17258,1,7,,inactive
CG17258,2,7,,inactive
CG17258,3,2,,inactive
CG31743 + CG34313,1,5,,inactive
CG31743 + CG34313,2,3,,inactive
CG3156,1,6,,inactive
CG3156,2,6,,inactive
CNMaR,1,7,,inactive
CNMaR,2,6,,inactive
esg,1,3,,inactive
CG17234,1,6,,inactive
Rad60,1,10,,inactive
ppk22,1,11,,inactive
CG4577,1,2,,inactive
SNRPG,1,9,,inactive
Rfx,1,8,,inactive
CG31089,1,9,,inactive

Records listed so far whose target name begins with G or g:
gene,dsRNA no.,"mitotic cells, replicate 1","mitotic cells, replicate 2",Outcome
gt,1,,,inactive
gt,2,4,,inactive
Gs1,1,6,,inactive
Gs1,2,5,,inactive
GstD2,1,2,,inactive
GstD2,2,7,,inactive
Gld,1,3,,inactive
GstD9,1,7,,inactive
GstD9,2,7,,inactive
